Experimental data published in PMC12569377, “P-Rex1 limits the agonist-induced internalization of GPCRs independently of its Rac-GEF activity” (Cell Reports, 2025).
These are yes or no findings as the source states them, for the method shown. Binding can be weak; no strength is given.

Chains of the proteins cited; added tags and fusions are not shown. Lines headed by an entry give the natural chain unless they say otherwise; changes in a name come on top.
UniProt P25098: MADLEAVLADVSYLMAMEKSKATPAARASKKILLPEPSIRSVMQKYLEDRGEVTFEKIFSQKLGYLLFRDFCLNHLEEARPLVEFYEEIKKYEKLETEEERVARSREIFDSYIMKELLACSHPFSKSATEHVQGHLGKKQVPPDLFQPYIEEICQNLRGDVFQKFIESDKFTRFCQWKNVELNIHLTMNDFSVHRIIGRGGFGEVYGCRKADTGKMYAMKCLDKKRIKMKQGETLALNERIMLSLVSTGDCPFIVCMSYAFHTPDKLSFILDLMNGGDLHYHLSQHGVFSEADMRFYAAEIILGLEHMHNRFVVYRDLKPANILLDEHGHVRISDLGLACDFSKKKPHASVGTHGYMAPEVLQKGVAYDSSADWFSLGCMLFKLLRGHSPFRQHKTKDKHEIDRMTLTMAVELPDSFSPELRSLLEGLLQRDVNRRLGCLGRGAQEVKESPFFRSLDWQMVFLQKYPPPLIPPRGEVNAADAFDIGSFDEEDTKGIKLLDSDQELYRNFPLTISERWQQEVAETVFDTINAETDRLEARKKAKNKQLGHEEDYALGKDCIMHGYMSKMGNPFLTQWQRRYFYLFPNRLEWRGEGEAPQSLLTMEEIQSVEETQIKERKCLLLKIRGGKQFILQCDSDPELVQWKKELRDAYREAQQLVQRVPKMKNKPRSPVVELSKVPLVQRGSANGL
UniProt Q8TCU6: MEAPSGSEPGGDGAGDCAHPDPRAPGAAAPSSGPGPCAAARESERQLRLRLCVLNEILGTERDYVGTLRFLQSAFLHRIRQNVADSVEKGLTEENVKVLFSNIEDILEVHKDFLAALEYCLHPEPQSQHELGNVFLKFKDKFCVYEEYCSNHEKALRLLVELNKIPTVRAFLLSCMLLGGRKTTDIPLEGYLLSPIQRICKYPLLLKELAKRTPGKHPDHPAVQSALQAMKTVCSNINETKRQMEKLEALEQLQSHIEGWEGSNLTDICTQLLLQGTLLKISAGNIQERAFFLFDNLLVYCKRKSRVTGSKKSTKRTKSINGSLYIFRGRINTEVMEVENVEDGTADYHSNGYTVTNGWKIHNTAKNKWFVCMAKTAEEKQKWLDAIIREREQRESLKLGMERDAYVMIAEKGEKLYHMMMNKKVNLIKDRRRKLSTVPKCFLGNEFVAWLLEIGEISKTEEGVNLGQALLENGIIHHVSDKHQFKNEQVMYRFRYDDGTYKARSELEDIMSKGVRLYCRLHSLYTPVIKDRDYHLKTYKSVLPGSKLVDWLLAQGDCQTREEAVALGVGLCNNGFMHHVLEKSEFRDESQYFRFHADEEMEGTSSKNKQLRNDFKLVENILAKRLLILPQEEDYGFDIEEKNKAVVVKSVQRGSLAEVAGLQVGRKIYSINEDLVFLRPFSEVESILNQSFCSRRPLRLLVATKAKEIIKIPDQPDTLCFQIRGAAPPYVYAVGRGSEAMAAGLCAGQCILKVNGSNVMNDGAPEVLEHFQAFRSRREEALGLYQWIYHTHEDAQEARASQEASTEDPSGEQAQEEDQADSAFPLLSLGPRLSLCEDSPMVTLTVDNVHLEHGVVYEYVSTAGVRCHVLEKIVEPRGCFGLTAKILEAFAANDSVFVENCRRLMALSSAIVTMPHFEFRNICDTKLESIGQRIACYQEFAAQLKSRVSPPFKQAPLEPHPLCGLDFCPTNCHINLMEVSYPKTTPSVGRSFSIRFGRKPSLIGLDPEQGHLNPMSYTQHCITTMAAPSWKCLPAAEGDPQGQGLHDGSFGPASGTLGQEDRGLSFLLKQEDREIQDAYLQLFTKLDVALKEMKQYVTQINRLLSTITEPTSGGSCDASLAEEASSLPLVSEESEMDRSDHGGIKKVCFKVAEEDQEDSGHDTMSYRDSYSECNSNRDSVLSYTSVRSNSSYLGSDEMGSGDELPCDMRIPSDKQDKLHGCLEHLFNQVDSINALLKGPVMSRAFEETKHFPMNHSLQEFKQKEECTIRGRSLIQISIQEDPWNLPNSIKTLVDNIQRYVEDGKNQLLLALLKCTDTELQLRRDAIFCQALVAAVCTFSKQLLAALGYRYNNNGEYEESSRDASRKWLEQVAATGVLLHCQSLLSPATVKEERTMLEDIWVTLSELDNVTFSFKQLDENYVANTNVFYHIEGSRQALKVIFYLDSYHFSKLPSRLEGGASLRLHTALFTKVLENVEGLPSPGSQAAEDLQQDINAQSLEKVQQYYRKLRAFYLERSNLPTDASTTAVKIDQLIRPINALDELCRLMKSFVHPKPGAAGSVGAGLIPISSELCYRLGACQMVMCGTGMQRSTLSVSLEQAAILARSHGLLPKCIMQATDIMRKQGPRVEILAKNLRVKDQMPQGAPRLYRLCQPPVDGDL

Molecular target: Recombinant human GST-Grk2 (human) (UniProt P25098)
Experiment: pull-down; 5 pmol P-Rex1 or P-Rex2 protein (2.5 pmol for P-Rex1 mutants) with 5 pmol GST, GST-Grk2 or GST-Grk5 in 20 μL detergent-free buffer (50 mM HEPES pH 7.2, 150 mM NaCl), 1 h on ice; GST proteins isolated on magnetic glutathione agarose, 45 min at 4°C, 4 washes in lysis buffer 2 (1% NP-40); western blot with P-Rex1 or P-Rex2 and GST antibodies; both purified

binding	Substance
binds	EE-P-Rex1 ΔPDZ (from UniProt Q8TCU6)
binds	EE-P-Rex1 ΔPH (from UniProt Q8TCU6)
